Only a part is listed here, and it is no random draw. The calls were merged from several studies; some rest on single wells. This is one part of the list.
Legend:
Conditions in all cases: stereoisomer not certain
[1] = test system: T1, OR1L1
T1 sequence (whole entry): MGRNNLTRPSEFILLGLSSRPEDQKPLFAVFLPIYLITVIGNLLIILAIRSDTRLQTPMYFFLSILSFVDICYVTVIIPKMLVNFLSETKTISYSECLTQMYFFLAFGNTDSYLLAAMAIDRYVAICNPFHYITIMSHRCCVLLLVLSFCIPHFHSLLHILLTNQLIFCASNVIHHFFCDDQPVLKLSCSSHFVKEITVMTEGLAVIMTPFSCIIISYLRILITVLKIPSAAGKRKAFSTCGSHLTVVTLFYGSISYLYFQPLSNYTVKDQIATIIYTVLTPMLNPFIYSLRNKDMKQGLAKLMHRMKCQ
How it was run: (§1)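 Values were gathered from published papers (main text and supplementary material), with extra details requested from the original authors when needed, and checked for typos and inconsistencies. Each receptor–molecule pair is called responsive (active) if the original authors judged the measured signal statistically different from baseline, and non-responsive (inactive) otherwise. Assay methods varied by source, often transient mammalian cell-line luciferase assays. Recorded details include cell line, G-protein, co-transfected protein and tags.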

[2] = biological target: T2, OR1L3 (Homo sapiens) (UniProt Q8NH93)
T2 sequence (whole entry): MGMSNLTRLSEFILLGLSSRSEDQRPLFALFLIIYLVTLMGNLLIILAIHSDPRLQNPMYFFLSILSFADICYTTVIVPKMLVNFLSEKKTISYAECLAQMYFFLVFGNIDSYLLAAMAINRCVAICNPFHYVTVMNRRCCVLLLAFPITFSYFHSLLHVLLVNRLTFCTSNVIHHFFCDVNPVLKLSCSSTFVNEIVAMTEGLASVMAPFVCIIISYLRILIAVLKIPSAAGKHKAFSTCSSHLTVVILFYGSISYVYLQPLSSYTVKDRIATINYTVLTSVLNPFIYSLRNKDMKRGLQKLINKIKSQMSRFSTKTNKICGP
How it was run: as §1

[3] = test system: T3, OR1L4
T3 sequence (whole entry): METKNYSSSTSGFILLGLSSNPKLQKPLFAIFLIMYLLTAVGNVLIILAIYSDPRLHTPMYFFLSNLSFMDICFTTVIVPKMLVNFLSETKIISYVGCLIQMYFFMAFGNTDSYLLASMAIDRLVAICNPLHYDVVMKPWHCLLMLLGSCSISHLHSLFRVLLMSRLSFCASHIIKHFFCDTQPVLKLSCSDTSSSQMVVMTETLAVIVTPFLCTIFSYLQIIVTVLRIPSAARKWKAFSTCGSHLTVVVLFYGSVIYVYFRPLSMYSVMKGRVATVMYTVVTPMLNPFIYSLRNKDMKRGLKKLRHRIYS
How it was run: as §1

[4] = test system: T4, OR1L6
T4 sequence (whole entry): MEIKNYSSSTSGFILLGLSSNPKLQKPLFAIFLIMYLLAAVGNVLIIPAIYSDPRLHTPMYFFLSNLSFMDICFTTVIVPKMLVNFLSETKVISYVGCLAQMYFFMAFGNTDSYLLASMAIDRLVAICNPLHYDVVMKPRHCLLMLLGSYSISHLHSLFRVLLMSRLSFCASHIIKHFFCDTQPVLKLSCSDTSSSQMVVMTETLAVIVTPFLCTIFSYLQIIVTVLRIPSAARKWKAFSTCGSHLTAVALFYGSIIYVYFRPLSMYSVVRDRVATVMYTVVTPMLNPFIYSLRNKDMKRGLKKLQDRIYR
How it was run: as §1

[5] = biological target: T5, OR1L8 (Homo sapiens) (UniProt Q8NGR8)
T5 sequence (whole entry): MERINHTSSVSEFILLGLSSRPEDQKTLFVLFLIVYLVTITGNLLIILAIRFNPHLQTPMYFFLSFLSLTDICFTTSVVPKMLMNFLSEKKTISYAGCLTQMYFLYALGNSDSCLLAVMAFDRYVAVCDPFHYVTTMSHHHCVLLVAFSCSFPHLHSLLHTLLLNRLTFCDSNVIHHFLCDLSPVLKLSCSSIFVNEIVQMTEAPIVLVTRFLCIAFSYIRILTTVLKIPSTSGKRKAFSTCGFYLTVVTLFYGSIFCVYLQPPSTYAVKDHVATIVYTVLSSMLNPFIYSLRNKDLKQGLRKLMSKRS
How it was run: as §1

[6] = test system: T6, OR1M1
T6 sequence (whole entry): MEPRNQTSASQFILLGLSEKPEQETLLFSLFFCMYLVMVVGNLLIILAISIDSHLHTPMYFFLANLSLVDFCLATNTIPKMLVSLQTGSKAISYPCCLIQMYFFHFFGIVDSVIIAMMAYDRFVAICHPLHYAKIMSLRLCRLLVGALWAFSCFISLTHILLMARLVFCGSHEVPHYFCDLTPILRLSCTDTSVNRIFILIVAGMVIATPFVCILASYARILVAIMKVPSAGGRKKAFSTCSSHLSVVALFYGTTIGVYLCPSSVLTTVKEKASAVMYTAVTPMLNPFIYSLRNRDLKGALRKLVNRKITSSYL
How it was run: as §1

[7] = biological target: T7, OR1N1 (Homo sapiens) (UniProt Q8NGS0)
T7 sequence (whole entry): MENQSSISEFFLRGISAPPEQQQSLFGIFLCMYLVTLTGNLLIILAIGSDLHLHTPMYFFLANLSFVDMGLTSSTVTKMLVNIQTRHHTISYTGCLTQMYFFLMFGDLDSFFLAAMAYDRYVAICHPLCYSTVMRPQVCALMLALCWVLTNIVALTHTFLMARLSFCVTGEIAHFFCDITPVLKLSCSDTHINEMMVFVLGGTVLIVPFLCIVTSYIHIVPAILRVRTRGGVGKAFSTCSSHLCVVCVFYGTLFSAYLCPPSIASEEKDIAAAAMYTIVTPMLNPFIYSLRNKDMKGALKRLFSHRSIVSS
How it was run: as §1

[8] = biological target: T8, OR1N2 (Homo sapiens) (UniProt Q8NGR9)
T8 sequence (whole entry): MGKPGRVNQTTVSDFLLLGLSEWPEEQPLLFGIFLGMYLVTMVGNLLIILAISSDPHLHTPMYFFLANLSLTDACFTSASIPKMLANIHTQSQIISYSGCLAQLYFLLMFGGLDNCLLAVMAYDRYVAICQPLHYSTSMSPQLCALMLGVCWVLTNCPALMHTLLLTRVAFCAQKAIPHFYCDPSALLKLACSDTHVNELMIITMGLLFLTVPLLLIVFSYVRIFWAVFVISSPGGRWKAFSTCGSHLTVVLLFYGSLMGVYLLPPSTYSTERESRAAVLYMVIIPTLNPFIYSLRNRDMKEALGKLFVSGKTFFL
How it was run: as §1

[9] = test system: T9, OR1N2
T9 sequence (whole entry): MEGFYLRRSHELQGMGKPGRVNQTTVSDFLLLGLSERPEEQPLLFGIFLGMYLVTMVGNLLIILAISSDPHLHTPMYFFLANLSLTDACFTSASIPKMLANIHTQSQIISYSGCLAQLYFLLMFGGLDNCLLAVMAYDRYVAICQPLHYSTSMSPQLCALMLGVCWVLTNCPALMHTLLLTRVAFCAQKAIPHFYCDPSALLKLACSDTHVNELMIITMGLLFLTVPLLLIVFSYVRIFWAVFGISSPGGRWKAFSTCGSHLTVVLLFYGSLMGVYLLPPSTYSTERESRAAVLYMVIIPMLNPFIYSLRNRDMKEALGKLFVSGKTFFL
How it was run: as §1

[10] = test system: T10, OR1Q1
T10 sequence (whole entry): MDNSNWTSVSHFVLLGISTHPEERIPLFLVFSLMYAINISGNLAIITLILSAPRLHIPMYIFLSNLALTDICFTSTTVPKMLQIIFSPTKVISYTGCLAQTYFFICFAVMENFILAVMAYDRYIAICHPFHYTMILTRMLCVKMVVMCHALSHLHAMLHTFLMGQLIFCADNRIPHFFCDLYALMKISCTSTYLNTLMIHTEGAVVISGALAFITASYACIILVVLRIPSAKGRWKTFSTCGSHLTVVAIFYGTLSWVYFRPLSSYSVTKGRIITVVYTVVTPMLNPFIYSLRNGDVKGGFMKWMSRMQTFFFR
How it was run: as §1

[11] = test system: T11, OR1S1
T11 sequence (whole entry): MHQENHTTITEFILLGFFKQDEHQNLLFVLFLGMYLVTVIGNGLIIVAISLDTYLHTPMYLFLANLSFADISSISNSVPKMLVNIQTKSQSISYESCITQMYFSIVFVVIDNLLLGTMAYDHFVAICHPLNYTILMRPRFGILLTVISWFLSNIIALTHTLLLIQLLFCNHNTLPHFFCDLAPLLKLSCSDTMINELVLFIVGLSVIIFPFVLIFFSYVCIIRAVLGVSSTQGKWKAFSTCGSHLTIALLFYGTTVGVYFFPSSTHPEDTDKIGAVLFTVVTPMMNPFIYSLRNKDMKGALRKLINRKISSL
How it was run: as §1

[12] = test system: T12, OR1S2
T12 sequence (whole entry): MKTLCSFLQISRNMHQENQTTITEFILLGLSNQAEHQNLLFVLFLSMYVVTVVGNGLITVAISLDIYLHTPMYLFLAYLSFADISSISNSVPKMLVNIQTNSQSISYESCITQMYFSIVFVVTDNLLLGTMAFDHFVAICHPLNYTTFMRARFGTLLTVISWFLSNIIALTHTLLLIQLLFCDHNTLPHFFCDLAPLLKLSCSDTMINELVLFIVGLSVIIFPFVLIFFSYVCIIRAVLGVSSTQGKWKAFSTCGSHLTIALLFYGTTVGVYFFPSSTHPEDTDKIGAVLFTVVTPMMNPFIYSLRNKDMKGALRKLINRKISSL
How it was run: as §1

[13] = biological target: T13, OR2A12 (Homo sapiens) (UniProt Q8NGT7)
T13 sequence (whole entry): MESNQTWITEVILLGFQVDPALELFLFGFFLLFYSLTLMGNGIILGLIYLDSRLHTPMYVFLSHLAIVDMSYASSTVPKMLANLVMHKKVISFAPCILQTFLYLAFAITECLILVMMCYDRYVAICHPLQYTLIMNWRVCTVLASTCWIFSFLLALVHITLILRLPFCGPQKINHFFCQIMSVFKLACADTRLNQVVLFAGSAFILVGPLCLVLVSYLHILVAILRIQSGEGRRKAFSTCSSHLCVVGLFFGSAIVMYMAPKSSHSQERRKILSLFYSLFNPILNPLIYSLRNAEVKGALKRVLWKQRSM
How it was run: as §1

[14] = biological target: T14, OR2A1 (Homo sapiens) (UniProt Q8NGT9)
T14 sequence (whole entry): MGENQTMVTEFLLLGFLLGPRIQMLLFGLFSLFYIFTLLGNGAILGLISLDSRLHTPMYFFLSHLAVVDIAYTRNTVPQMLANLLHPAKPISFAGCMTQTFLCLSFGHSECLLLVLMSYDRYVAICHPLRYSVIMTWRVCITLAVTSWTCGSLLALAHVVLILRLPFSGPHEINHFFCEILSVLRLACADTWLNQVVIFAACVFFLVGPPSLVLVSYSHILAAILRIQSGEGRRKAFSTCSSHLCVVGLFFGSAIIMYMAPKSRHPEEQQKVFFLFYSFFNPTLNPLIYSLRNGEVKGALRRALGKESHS
How it was run: as §1

Structure (SMILES)	odorant receptor agonist call [1]	odorant receptor agonist call [2]	odorant receptor agonist call [3]	odorant receptor agonist call [4]	odorant receptor agonist call [5]	odorant receptor agonist call [6]	odorant receptor agonist call [7]	odorant receptor agonist call [8]	odorant receptor agonist call [9]	odorant receptor agonist call [10]	odorant receptor agonist call [11]	odorant receptor agonist call [12]	odorant receptor agonist call [13]	odorant receptor agonist call [14]
c1ccc(Oc2ccccc2)cc1	inactive	inactive	inactive	inactive	inactive	inactive	inactive	inactive	inactive	inactive	inactive	inactive	inactive	
CC1CCC(C(C)C)C(O)C1 (configuration not stated)	inactive	inactive	inactive	active	inactive	inactive	active	inactive	inactive	inactive	active	inactive	inactive	inactive
CCCCCCCC=O	inactive	inactive	inactive	inactive	inactive	inactive	inactive	inactive	inactive	inactive	inactive	inactive	inactive	inactive
C=CC(C)(O)CCC=C(C)C (configuration not stated)	inactive	inactive	inactive	inactive	inactive	inactive	inactive	active	active	inactive	inactive	inactive	inactive	inactive
CC1=CCC(C(C)(C)O)CC1 (configuration not stated)	inactive	inactive	inactive	inactive	inactive	inactive	inactive	inactive	inactive	inactive	inactive	inactive	inactive	
CCCCO	inactive	inactive	inactive	inactive	inactive	inactive	inactive	inactive	inactive	inactive	inactive	inactive	inactive	inactive

Reference: the M2OR odorant receptor database
